Patent US20040248806A1, “Compounds comprising an analgesic molecule linked to a vector that can vectorise said molecule through the hematoencephalic barrier and pharmaceutical compositions containing same” (priority 2001, published 2004)
Part of at least one peptide drawing is inferred or uncertain, most often the ends. Non-standard residues stand in square brackets, D forms with d. Residues, ends and D or L forms follow the SMILES beside them. *: point of attachment. X1 = CN1CC[C@]23c4c5ccc(O)c4O[C@H]2[C@@H](O[C@@H]2O[C@H](C(=O)NCCS*)[C@@H](O)[C@H](O)[C@H]2O)C=C[C@H]3[C@H]1C5; Mpa = O=C(O)CCS

Chains of the proteins cited; added tags and fusions are not shown. Residues count along the entry.
UniProt P79350, whole entry: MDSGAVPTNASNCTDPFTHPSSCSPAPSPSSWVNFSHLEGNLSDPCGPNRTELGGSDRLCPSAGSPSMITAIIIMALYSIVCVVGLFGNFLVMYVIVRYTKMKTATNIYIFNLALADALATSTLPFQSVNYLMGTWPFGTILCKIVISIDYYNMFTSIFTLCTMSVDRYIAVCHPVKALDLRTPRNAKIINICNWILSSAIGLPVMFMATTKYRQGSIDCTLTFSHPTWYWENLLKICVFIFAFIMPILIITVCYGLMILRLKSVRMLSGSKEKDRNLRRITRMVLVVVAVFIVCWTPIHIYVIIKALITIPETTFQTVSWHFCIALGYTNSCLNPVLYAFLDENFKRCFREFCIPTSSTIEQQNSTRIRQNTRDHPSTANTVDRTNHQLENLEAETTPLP
UniProt F1N083, 1-372: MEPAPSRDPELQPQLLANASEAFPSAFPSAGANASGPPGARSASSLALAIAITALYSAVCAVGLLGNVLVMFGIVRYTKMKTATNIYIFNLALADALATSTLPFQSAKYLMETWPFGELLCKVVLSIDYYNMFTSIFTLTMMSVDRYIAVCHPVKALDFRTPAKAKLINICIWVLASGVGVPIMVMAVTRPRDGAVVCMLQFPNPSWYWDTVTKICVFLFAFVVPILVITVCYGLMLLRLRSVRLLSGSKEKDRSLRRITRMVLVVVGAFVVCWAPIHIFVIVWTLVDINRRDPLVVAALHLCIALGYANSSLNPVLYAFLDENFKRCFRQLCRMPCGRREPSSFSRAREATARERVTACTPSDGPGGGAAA

Assays:
[1] = mouse, in vivo, iv, 1 mg/kg
Tail flick test = format: in vivo, mouse; conditions: mice; for ED50: dose giving analgesic effect in 50% of the mice
Method: II.2. Assay Used: Tail Flick Test
a) Experimental Conditions
The mouse tail is placed in front of an infrared source. The light is focused on the ventral surface of the tail so as to produce a surface temperature of 55° C. As soon as the mouse moves the tail, the reaction time is then measured. The compounds studied are administered subcutaneously.
Three measurements are taken before administration of the product so as to have a baseline time. The percentage of mice in which analgesia has occurred is then represented by the number of mice having a reaction time which is at least double the baseline time divided by the total number of mice. The ED50 dose represents the concentration which gives 50% of mice in which analgesia has occurred.
[…]. We determined the ED50, which represents the dose which gives an analgesic effect in 50% of the mice in the “tail flick” model, for each product. […].

μ1 receptor = assay: Receptor affinity, [3H]DADLE binding in calf thalamus homogenate
Method: (§1) Tissue homogenates are prepared from calf brains (thalamus for μ1 and μ2 and frontal cortex for delta). [^3H][D-Ala^2,D-Leu^5]enkephalin (DADLE) (0.7 nM) is incubated with 3 ml of tissue homogenate (15 mg of tissue per ml) in the presence of 10 nM of [D-Pen^2,D-Pen^5]enkephalin (DPDPE) and of increasing concentrations of free or vectorized M6G. Under these conditions, specific binding to μ1 binding sites is observed. For the μ2 receptor, [D-Ala^2, MePhe^4,Gly(ol)^5]enkephalin (DAMGO) (1 nM) is incubated with 3 ml of tissue homogenate in the presence of 5 nM [D-Ser2,Leu^5]enkephalin-Thr^6 (DSLET) and of increasing concentrations of free or vectorized M6G. For the delta receptor, the tissue is incubated with [^3H] [D-Pen^2,D-Pen^5]enkephalin in the presence of free or vectorized M6G. The nonspecific binding is determined by adding to the labeled ligands 1 μM of levallorphan.

μ2 receptor = biological target: T1, μ2 receptor (Bos taurus, UniProt P79350); assay: Receptor affinity, DAMGO binding in calf thalamus homogenate; conditions: vectorized versus free M6G
T1 construct: Tissue homogenates are prepared from calf brains; from tissue; host or cells: calf brain thalamus homogenate
Method: as §1

delta receptor = biological target: T2, delta receptor (Bos taurus, UniProt F1N083); assay: Receptor affinity, [3H]DPDPE binding in calf frontal cortex homogenate; conditions: vectorized versus free M6G
T2 construct: Tissue homogenates are prepared from calf brains; from tissue; host or cells: calf brain frontal cortex homogenate
Method: as §1

CC(C)C[C@H](NC(=O)[C@H](CCCNC(=N)N)NC(=O)[C@H](CCCNC(=N)N)NC(=O)CCSSCCNC(=O)[C@H]1O[C@@H](O[C@H]2C=C[C@H]3[C@H]4Cc5ccc(O)c6c5[C@@]3(CCN4C)[C@H]2O6)[C@H](O)[C@@H](O)[C@@H]1O)C(=O)N[C@@H](CO)C(=O)N[C@@H](Cc1ccc(O)cc1)C(=O)N[C@@H](CO)C(=O)N[C@@H](CCCNC(=N)N)C(=O)N[C@@H](CCCNC(=N)N)C(=O)N[C@@H](CCCNC(=N)N)C(=O)N[C@@H](Cc1ccccc1)C(=O)O [Compound 2] ([Mpa](X1)RRLSYSRRRF-OH; C-terminus assumed)
analgesic effect compared with free M6G (reaction time, FIG. 2) [1]: much more significant | analgesic effect compared with morphine (reaction time, FIG. 3) [1]: much greater analgesic effect than that of morphine | time course of the analgesic effect (FIG. 2) [1]: slow and lasting, even after 90 minutes post-administration | Duration of the effect (Tail flick test; intravenous): 180 min | ED50 (Tail flick test; intravenous): 1.08 µmol/kg | Duration of the effect (Tail flick test; subcutaneous): 300 min | ED50 (Tail flick test; subcutaneous): 1.7 µmol/kg | Ki (μ1 receptor; calf thalamus homogenate, [3H]DADLE 0.7 nM with 10 nM DPDPE): 0.95 nM | increase in affinity for the μ1 receptor versus M6G (μ1 receptor; vectorized versus free M6G): approximately 3 fold | increase in affinity for the μ2 receptor versus M6G (μ2 receptor): approximately 10 fold | binding to the delta receptor versus M6G (delta receptor): remained the same
